Binding data for 1 molecule are collected here from article PMC5584526.

This experiment addresses T1, p47^phox (mouse (endogenous in BMDM)) (UniProt Q09014).
T1 sequence: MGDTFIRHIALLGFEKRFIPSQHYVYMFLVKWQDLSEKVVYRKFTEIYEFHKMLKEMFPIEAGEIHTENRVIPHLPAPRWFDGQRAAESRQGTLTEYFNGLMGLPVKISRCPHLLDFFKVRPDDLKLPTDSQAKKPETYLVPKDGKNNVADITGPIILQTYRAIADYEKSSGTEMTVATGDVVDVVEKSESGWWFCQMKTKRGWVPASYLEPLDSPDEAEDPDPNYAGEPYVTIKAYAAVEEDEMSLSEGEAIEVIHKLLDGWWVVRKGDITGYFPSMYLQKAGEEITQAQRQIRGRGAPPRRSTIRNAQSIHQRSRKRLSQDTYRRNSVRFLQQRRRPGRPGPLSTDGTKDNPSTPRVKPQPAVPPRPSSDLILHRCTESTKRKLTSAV
Description: co-IP; lysates of WT BMDM treated with BCM (40 μl/ml) for 0-18 h; immunoprecipitated with anti-p47phox antibody on Dynabeads protein G; immunoblot for gp91phox.

These are yes or no findings as the source states them, for the method shown. Binding seen in cells or lysates may run through a third protein. Some results given as binding are weak or reduced against the parent protein; the word gives no strength.

B1: gp91^phox (protein, UniProt Q61093 1-570)
chain: MGNWAVNEGLSIFVILVWLGLNVFLFINYYKVYDDGPKYNYTRKLLGSALALARAPAACLNFNCMLILLPVCRNLLSFLRGSSACCSTRIRRQLDRNLTFHKMVAWMIALHTAIHTIAHLFNVEWCVNARVGISDRYSIALSDIGDNENEEYLNFAREKIKNPEGGLYVAVTRLAGITGIVITLCLILIITSSTKTIRRSYFEVFWYTHHLFVIFFIGLAIHGAERIVRGQTAESLEEHNLDICADKIEEWGKIKECPVPKFAGNPPMTWKWIVGPMFLYLCERLVRFWRSQQKVVITKVVTHPFKTIELQMKKKGFKMEVGQYIFVKCPKVSKLEWHPFTLTSAPEEDFFSIHIRIVGDWTEGLFNACGCDKQEFQDAWKLPKIAVDGPFGTASEDVFSYEVVMLVGAGIGVTPFASILKSVWYKYCDNATSLKLKKIYFYWLCRDTHAFEWFADLLQLLETQMQERNNANFLSYNIYLTGWDESQANHFAVHHDEEKDVITGLKQKTLYGRPNWDNEFKTIASEHPNTTIGVFLCGPEALAETLSKQSISNSESGPRGVHFIFNKENF
With B1, the binding result was “binds”.
